This is one part of the list.

Amino acid sequences for entries named in this document (tags omitted).
UniProt Q0JBA9, entry or part of it: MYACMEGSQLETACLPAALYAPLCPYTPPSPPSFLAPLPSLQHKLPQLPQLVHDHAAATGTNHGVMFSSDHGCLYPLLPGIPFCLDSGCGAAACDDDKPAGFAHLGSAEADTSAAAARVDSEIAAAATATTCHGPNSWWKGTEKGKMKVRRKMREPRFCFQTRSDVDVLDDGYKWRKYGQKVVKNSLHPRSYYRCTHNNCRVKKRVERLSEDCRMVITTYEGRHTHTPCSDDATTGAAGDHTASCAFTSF

The target of the assay is OsWRKY34 (Oryza sativa, UniProt Q0JBA9 1-250). The assay is described as follows: protein-binding microarray (RPBM); PBS, 2% BSA, 51.3 ng/ul salmon testes DNA, 50 uM zinc acetate, 200 nM TF, 25 C, 1 h; high values mean tight binding. The conditions noted are these: protein: recombinant; tags: N-terminal polyhistidine and DsRed monomer fusion (pET32a); label: CyDye5-dUTP incorporated in the synthesized complementary strand; 3' TTTTT single-stranded linker to array surface; dsDNA, one strand shown. An outline of the steps:
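Binding signal here means per-feature fluorescence intensity in arbitrary units. The values were read on an Axon 4000B scanner after a custom Agilent array, double-stranded by primer extension with Cy5-dUTP, was incubated with 200 nM protein at 25 °C for 1 h in PBS with 2% BSA, salmon testes DNA and 50 µM zinc acetate, then washed. The proteins were transcription factors with an N-terminal polyhistidine tag and DsRed, expressed in E. coli BL21-CodonPlus and purified on Ni–NTA.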
On to “CTAAAAATATTTATATTTTGGGAGGGAGGGAGTATCAATCCGGAGTCACCTAGTGCAG”, for which the binding signal is 8550 fluorescence intensity (a.u.).

With “TCATACCTACCATGGACTCATTTTATTTGAGCAACCTTTCCGGAGTCACCTAGTGCAG”, the binding signal is 8720 fluorescence intensity (a.u.).

Consider “CGTTTGCACCAGTGTATGTCCTGCGGCCGCCTCAATCGTTCGGAGTCACCTAGTGCAG”, for which the binding signal was 8860 fluorescence intensity (a.u.).

Regarding “CTATTTTTTACCATCTACTACACGGCTTTTATTTCGTCATCGGAGTCACCTAGTGCAG”, the binding signal was 9370 fluorescence intensity (a.u.).

Consider “AGTGTCTGTTTCCATGTTGCTTCTTGTTAATGTAGGGTGACGGAGTCACCTAGTGCAG”, for which the binding signal is 15700 fluorescence intensity (a.u.).

Consider “CTCGTGTTCTTCGACGATTTCGTGGTCTCTAATTTGTTTTCGGAGTCACCTAGTGCAG”, for which the binding signal was 9680 fluorescence intensity (a.u.).

With “GCTCGATCTCCGACGTCATGCGCCGCTCGCTGCCCGTCGACGGAGTCACCTAGTGCAG”, the binding signal is 8710 fluorescence intensity (a.u.).

Turning to “TGCTTGTGGTTTGTATGGAGTTTGGGTGAAGTGTCACGTACGGAGTCACCTAGTGCAG”, the binding signal was 9660 fluorescence intensity (a.u.).

Regarding “ACGCGCCACCGCCACCGCCACCGCCATTGTGGGCCCTCGACGGAGTCACCTAGTGCAG”, the binding signal is 9470 fluorescence intensity (a.u.).

On to “CTGTCGAAATTAATTACTCATCTTCATTCCAACTTTTTTTCGGAGTCACCTAGTGCAG”, for which the binding signal is 8590 fluorescence intensity (a.u.).

Turning to “CCTTGACACTTAAAGCTGCAATTGAATCATTGCTTATGGACGGAGTCACCTAGTGCAG”, the binding signal is 10100 fluorescence intensity (a.u.).

As to “GCCGCCACTTTAACCAAGCCTCCTTGATCACACTCCTAATCGGAGTCACCTAGTGCAG”, the binding signal is 8760 fluorescence intensity (a.u.).

In the case of “ATAACTATTTTCAATTTAATTTGTTCTTTTTGTTGCAACTCGGAGTCACCTAGTGCAG”, the binding signal was 9170 fluorescence intensity (a.u.).

As for “GGTGCAGTTAGTTGTGCATACCCGTCTCGTTCAGTTTCATCGGAGTCACCTAGTGCAG”, the binding signal was 11200 fluorescence intensity (a.u.).

For the sequence “GAAGGTTGCTGTTGCTTGTTGTTGGTAGTGTCTTGTGTGCCGGAGTCACCTAGTGCAG”, the binding signal was 9090 fluorescence intensity (a.u.).

On to “AAGCCTGAAACCACTAGCACTTTGTATCAGTATCACCGTTCGGAGTCACCTAGTGCAG”, for which the binding signal was 9270 fluorescence intensity (a.u.).

As for “GTTAGACCATCGGTTAGACAGGCGTACCTCTGTTTGGATCCGGAGTCACCTAGTGCAG”, the binding signal was 8240 fluorescence intensity (a.u.).

Consider “TCTTATCCATACCCTGGCCCACCTCGCCCCACGCCGCGTCCGGAGTCACCTAGTGCAG”, for which the binding signal is 9650 fluorescence intensity (a.u.).

Turning to “TTTTTTTATTTTTTTTGAAATATTTTTTGTTGGGTTTTTTCGGAGTCACCTAGTGCAG”, the binding signal is 13100 fluorescence intensity (a.u.).

Take “TGCTAGTGCTGTTCACTGTTTATACTTGTCGTACTCCAAACGGAGTCACCTAGTGCAG”: the binding signal is 9950 fluorescence intensity (a.u.).

Turning to “TGATATGATCTCTAACTTTGCTTCTGTTTTGACTCTTTAGCGGAGTCACCTAGTGCAG”, the binding signal was 8220 fluorescence intensity (a.u.).

As to “AGCTCAGTCCACCCACCGCTCTCACTTCCATACGCGGCCCCGGAGTCACCTAGTGCAG”, the binding signal was 8870 fluorescence intensity (a.u.).

Take “TGTTTGCTTATTACTATTTTTTTTGGGGCGGGAAATTAAACGGAGTCACCTAGTGCAG”: the binding signal is 14100 fluorescence intensity (a.u.).

“AATAGATTTTGTTGGCAGCTCATGAGTAGTAAAATTATTTCGGAGTCACCTAGTGCAG”: the binding signal is 8070 fluorescence intensity (a.u.).

“TGTCATGCTGATCCTACTCCTCACTTGCAAAAATCCTGCGCGGAGTCACCTAGTGCAG”: the binding signal is 8660 fluorescence intensity (a.u.).

Turning to “TCTGCTGCGCGGCTGCTCGTTACGTTGGGTGTTATTTGATCGGAGTCACCTAGTGCAG”, the binding signal is 8410 fluorescence intensity (a.u.).

“TAATACCCCACTTATTTTGTCTTTTACCTATAAACTTTATCGGAGTCACCTAGTGCAG”: the binding signal was 8470 fluorescence intensity (a.u.).

Consider “GTATTTTCGATTGTTTACACTATAATTAGACTGTTTTATACGGAGTCACCTAGTGCAG”, for which the binding signal was 8600 fluorescence intensity (a.u.).

On to “CTCATTCTGCGTGCCCTTACTTAATCCTCATCCTCATTACCGGAGTCACCTAGTGCAG”, for which the binding signal is 13600 fluorescence intensity (a.u.).

As for “CCCGCCCTGCTCCCGTGCTGCCACCAACAACGCGATCACCCGGAGTCACCTAGTGCAG”, the binding signal was 8500 fluorescence intensity (a.u.).

With “TAATCACGAGACCCGCACTCTTTTTTTGCGTCGCTCGAGCCGGAGTCACCTAGTGCAG”, the binding signal was 9650 fluorescence intensity (a.u.).

For “TACTGGATCTCTGCTTCTGACCAAAATGTTCCGCATTGAACGGAGTCACCTAGTGCAG”, the binding signal was 8560 fluorescence intensity (a.u.).

Take “CTCGTTCTCCACCTTATCACCCAACCCGTCGTGCCAATCCCGGAGTCACCTAGTGCAG”: the binding signal was 9960 fluorescence intensity (a.u.).

Consider “TTTGCACTATTCACGTTCAACGTTTGATCGTTCGTTTTATCGGAGTCACCTAGTGCAG”, for which the binding signal is 9750 fluorescence intensity (a.u.).

On to “CCAGTAGTACGCATATATCCATCGAGATTAATCGAAAACTCGGAGTCACCTAGTGCAG”, for which the binding signal was 8330 fluorescence intensity (a.u.).

Consider “GAGTAAATGCTATAGTTACATATCCGTTTGTTTATTTGTGCGGAGTCACCTAGTGCAG”, for which the binding signal is 8130 fluorescence intensity (a.u.).

Turning to “GCATTTTGTTTTCCTCCATTTGGTGAGCTTCCTTTTCATCCGGAGTCACCTAGTGCAG”, the binding signal was 10800 fluorescence intensity (a.u.).

Turning to “CCCTCCGTTCACCTGTGGTAATCTTAGCAGCGTGTCGTCTCGGAGTCACCTAGTGCAG”, the binding signal is 8200 fluorescence intensity (a.u.).

On to “CTATCTCATTGTTTTACACGTGGCTGCTACTTCTCCTGCTCGGAGTCACCTAGTGCAG”, for which the binding signal is 14700 fluorescence intensity (a.u.).

On to “TTGTATTTATTCACTCATTGGTTTTATGTACATGTCATATCGGAGTCACCTAGTGCAG”, for which the binding signal is 12500 fluorescence intensity (a.u.).

As for “AGTATCCAATATTCTTGTTGTCTTTCACCTTTTGGTCTAGCGGAGTCACCTAGTGCAG”, the binding signal is 11600 fluorescence intensity (a.u.).

With “TGGGTGGAGATGTGGCGTGCGTGGGGTGGTGGTTGATCTCCGGAGTCACCTAGTGCAG”, the binding signal was 12800 fluorescence intensity (a.u.).

Values taken from paper PMC7819943, “Rice protein-binding microarrays: a tool to detect cis-acting elements near promoter regions in rice”.
